The assay has as its target T1, CsgAN6 (co-purification construct) (E. coli K12).
T1 sequence: GVVPQY
In words: pull-down; co-purification assay: linked constructs co-expressed in E. coli BL21 (DE3), membrane fraction solubilised in 1.5% DDM, Strep-Tactin column, eluted in 0.02% DDM; Coomassie blue.

Results are given in words; binding and its absence hold for the method and conditions named. In cells and extracts the contact can be indirect. Some binding calls cover weakened binding; strength is not graded here. Tags and fused reporters may be left off the sequences shown.

B1: CsgG (from the CsgEFG operon construct with C-terminal strep-tag II) (natural protein, E. coli K12, UniProt P0AEA2 16-277, looked up)
chain: CLTAPPKEAARPTLMPRAQSYKDLTHLPAPTGKIFVSVYNIQDETGQFKPYPASNFSTAVPQSATAMLVTALKDSRWFIPLERQGLQNLLNERKIIRAAQENGTVAINNRIPLQSLTAANIMVEGSIIGYESNVKSGGVGARYFGIGADTQYQLDQIAVNLRVVNVSTGEILSSVNTSKTILSYEVQAGVFRFIDYQRLLEGEVGYTSNEPVMLCLMSAIETGVIFLINDGIDRGLWDLQNKAERQNDILVKYRHMSVPPES
notes: also called CsgG channel; CsgG subcomplex; source: E. coli BL21 (DE3), co-expressed from the CsgEFG operon; membrane fraction solubilised in DDM/LDAO, purified (Strep-Tactin, SEC); not shown: strep-tag II, C-terminal, kept
Take B1: the binding result is on record as “binds”.

The values above are taken from PMC6957492, “Assembly and substrate recognition of curli biogenesis system” (Nature Communications, 2020).
